In publication PMC7890977:
These are yes or no findings as the source states them, for the method shown. Binding seen in cells or lysates may run through a third protein.

Biological target: T1, Syntaxin 6, endogenous in HEK-APP cells (human (endogenous in HEK293)) (UniProt O43752)
T1 sequence: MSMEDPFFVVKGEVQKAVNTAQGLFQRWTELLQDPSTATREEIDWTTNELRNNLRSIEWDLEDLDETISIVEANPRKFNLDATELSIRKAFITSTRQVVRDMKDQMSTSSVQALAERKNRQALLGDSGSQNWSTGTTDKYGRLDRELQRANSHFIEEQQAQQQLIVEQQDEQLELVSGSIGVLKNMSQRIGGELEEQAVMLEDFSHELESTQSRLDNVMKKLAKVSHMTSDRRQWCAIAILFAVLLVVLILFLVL
Test: co-IP; 100 μg protein extract of HEK-APP cells (lysis buffer 25 mM Tris HCl pH 7.5, 150 mM NaCl, 0.5% Triton X-100); 1 μg mAb anti-CERTL (3A1-C1), anti-Aβ/APP 6E10 or anti-syntaxin 6 (isotype control), 1 h at room temperature; immune complexes brought down with anti-mouse secondary antibodies; Western blot with 6E10 and rabbit pAb anti-CERTs

binding: no binding
Substance: Human amyloid precursor protein, APP695 isoform
